This is one part of the list.

Chains of the proteins cited; added tags and fusions are not shown. Lines headed by an entry give the natural chain unless they say otherwise; changes in a name come on top.
UniProt Q6ZMG9: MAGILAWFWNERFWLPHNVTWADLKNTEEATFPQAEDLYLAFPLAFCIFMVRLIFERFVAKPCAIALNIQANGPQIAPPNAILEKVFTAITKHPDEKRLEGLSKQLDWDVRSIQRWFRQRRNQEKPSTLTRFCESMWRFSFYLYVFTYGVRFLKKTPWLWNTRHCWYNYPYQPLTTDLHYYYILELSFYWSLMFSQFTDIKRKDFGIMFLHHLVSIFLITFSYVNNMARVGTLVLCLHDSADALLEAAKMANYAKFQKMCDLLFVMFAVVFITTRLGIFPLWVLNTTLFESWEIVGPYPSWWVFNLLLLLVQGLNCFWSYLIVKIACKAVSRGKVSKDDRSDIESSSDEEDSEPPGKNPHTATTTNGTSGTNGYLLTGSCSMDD
UniProt Q86X02: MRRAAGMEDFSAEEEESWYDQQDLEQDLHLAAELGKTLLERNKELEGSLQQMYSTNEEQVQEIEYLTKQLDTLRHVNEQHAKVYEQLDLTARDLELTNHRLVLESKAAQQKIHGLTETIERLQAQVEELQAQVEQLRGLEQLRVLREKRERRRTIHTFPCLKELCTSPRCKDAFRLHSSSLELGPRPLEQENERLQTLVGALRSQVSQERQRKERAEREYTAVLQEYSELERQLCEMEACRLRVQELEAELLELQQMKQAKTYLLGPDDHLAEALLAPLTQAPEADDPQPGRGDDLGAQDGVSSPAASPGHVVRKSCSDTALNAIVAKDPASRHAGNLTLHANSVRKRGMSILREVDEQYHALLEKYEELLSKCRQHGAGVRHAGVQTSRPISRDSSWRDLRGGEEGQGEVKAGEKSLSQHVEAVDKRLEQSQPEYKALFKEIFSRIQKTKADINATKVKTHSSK
UniProt P08603, whole entry, looked up: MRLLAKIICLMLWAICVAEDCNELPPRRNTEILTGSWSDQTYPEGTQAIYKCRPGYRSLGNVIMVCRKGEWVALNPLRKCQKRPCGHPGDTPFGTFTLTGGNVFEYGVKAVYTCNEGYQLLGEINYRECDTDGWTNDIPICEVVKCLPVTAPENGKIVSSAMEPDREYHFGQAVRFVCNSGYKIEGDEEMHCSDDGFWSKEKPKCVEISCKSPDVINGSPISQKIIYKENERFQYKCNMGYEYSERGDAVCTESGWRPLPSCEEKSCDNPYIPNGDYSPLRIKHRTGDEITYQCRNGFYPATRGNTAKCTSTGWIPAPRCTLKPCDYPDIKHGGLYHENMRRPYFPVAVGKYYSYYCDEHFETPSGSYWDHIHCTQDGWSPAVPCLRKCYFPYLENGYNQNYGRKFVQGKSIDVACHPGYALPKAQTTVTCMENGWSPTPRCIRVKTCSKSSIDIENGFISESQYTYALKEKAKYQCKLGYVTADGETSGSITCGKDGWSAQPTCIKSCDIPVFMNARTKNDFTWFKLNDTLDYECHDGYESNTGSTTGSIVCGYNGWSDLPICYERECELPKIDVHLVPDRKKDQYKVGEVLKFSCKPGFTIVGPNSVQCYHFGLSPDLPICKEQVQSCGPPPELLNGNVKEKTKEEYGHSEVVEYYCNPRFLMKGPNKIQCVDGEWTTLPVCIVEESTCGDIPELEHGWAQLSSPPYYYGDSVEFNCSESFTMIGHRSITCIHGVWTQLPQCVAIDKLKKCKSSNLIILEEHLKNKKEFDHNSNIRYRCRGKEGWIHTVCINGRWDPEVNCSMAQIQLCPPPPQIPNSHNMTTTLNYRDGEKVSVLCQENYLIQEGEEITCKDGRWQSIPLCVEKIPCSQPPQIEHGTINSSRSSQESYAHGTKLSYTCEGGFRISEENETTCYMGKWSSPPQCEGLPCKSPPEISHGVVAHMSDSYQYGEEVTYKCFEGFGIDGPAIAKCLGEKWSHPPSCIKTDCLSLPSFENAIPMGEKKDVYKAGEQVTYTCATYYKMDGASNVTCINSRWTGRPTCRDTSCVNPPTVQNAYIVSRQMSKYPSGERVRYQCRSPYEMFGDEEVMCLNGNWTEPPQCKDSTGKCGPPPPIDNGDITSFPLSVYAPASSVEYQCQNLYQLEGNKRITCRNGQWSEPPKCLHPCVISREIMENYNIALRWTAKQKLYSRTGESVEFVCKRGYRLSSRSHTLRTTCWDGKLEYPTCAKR
UniProt Q9BWS9: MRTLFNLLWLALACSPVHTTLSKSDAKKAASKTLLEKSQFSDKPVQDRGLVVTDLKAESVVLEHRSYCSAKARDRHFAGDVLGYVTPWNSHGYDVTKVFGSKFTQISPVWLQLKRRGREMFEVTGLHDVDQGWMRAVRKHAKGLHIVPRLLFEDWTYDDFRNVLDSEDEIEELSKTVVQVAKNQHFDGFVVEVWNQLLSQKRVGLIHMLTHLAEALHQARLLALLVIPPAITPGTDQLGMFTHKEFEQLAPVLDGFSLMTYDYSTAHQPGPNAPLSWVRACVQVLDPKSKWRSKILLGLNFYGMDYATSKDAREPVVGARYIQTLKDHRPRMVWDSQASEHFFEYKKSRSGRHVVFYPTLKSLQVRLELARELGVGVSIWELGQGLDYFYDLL
UniProt O14735: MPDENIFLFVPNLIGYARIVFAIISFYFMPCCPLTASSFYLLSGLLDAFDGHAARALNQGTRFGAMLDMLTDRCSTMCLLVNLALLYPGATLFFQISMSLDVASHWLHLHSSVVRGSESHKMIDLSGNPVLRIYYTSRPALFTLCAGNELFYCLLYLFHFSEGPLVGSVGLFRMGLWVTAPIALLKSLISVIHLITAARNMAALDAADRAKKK
UniProt Q9H3Q1: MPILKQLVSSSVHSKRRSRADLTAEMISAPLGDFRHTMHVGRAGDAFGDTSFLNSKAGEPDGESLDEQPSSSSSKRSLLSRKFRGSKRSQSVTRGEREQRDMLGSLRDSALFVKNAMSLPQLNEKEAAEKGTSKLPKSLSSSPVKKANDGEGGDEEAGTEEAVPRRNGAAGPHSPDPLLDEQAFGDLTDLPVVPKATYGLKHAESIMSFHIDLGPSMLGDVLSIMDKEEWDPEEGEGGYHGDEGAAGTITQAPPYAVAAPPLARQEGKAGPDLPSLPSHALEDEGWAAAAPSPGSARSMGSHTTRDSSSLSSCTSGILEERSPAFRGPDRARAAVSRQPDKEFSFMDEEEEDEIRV
UniProt Q9NZZ3: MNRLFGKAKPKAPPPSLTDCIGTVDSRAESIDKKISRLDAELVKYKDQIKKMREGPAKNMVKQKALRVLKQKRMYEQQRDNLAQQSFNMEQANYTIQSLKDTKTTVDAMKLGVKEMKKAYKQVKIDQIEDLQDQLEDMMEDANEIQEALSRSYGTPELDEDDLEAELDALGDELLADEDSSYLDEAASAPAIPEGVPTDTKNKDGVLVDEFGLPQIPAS
UniProt Q9NRR3: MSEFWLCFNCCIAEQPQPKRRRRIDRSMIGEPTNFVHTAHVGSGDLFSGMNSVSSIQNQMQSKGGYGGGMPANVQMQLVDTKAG
UniProt O14519: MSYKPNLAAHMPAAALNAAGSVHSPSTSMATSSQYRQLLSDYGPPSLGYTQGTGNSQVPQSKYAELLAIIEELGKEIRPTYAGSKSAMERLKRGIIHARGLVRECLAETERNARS
UniProt P49454: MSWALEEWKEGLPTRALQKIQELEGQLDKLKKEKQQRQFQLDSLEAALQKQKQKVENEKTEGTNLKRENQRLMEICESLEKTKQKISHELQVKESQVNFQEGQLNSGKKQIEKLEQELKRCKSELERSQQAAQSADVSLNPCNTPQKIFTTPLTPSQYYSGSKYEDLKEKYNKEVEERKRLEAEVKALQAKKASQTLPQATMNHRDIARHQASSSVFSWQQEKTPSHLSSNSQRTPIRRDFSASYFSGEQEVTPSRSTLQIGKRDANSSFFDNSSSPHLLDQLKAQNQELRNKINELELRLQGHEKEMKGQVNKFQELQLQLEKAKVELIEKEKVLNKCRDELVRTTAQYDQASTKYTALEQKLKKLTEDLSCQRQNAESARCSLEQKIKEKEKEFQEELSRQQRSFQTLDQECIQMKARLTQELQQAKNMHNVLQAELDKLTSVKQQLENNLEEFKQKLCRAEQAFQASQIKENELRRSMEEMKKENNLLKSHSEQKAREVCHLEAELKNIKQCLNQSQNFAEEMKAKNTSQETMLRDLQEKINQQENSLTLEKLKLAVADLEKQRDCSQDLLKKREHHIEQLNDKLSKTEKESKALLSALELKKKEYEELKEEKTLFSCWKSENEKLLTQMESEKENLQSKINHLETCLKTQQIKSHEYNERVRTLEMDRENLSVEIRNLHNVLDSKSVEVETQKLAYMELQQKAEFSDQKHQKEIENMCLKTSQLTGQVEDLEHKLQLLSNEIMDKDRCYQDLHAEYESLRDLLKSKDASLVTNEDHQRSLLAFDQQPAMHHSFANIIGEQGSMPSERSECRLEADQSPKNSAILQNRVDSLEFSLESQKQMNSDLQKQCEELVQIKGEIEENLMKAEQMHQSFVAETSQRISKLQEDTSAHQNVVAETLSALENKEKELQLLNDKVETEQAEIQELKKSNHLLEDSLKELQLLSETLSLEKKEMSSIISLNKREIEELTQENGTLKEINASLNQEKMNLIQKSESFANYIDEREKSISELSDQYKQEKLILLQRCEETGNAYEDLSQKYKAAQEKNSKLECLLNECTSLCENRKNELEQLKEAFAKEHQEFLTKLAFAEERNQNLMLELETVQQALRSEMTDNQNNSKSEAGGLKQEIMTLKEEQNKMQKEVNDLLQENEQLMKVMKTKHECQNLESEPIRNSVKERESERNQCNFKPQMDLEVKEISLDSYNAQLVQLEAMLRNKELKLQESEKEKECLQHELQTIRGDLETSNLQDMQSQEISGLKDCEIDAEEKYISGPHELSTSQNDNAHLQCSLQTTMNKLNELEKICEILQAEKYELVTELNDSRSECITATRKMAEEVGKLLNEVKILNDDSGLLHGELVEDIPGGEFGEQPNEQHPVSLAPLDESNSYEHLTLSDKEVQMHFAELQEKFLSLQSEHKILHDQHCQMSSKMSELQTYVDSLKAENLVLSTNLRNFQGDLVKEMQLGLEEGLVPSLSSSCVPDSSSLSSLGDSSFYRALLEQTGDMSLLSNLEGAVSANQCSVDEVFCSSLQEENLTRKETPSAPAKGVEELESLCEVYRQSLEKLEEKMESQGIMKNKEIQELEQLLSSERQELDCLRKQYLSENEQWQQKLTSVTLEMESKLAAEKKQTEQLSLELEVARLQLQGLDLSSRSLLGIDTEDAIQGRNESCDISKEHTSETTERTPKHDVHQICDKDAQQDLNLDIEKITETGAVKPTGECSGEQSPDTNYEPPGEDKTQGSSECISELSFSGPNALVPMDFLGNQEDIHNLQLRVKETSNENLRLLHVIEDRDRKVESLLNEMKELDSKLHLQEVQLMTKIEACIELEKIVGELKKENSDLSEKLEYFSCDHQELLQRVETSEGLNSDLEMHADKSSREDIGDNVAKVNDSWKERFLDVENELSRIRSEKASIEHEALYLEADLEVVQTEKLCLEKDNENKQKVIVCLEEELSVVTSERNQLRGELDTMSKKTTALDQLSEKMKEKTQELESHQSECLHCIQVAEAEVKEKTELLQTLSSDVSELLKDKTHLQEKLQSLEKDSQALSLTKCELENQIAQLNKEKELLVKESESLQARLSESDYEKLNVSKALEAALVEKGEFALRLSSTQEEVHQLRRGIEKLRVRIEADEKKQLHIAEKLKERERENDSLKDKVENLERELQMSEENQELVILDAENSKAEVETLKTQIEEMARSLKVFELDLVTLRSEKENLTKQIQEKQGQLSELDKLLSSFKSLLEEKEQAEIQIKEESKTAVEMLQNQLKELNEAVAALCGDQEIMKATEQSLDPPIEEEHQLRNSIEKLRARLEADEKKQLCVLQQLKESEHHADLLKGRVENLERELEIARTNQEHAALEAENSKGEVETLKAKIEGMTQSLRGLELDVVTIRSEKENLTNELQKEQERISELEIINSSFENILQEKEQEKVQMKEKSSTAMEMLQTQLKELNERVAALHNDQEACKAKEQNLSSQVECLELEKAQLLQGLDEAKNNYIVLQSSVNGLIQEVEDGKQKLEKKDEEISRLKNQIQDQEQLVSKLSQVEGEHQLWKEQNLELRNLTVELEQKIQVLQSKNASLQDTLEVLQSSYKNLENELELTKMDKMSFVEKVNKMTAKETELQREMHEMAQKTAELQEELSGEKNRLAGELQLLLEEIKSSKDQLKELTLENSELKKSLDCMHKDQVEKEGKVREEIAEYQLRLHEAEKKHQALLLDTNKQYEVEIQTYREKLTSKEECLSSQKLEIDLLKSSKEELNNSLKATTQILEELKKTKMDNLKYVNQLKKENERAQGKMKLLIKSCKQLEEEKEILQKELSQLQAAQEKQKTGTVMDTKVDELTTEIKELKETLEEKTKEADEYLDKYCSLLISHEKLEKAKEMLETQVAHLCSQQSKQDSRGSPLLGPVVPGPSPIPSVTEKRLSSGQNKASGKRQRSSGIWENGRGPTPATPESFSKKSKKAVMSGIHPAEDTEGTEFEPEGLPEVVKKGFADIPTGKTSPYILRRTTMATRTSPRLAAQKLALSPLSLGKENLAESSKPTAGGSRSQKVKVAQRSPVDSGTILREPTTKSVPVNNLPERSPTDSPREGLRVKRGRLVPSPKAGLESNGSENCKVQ

Compound in the assay: c1cn2cc(-c3ccc4cn[nH]c4c3)nc(Nc3ccc(N4CCOCC4)cc3)c2n1 [entospletinib]
As to the kind of experiment: log2 fold change, soluble protein after heating vs DMSO (PISA); higher = thermal stabilisation; K562 cells, 10 uM, 30 min; active = over 0.2 and 3.5 SD of the protein, either way, in both replicates (recomputed). In a few lines:
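K562 cells at 2×10^6 cells/mL were exposed to 10 μM compound for 30 min, then aliquots were heated for 3 min across 48°C-58°C, pooled, and extracted in PBS containing 0.5% NP-40 at 4°C. The supernatant after 21,000xg for 90 min was taken as soluble protein and measured by TMTpro 16plex LC-MS/MS with channel sums equalised. Thermal stability is reported relative to control samples, with values from duplicates. Fold changes are given on a log2 scale.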
On to CERS6 isoform 2 (UniProt Q6ZMG9), for which the log2 fold change was inactive: 0.18.

On to CFDP1 (UniProt Q9UEE9), for which the log2 fold change is inactive: -0.006.

Turning to CHD6 (UniProt Q8TD26), the log2 fold change was inactive: 0.077.

Consider CHKB (UniProt Q9Y259), for which the log2 fold change was inactive: -0.044.

Turning to CDR2L (UniProt Q86X02), the log2 fold change is inactive: -0.101.

As to CFH (UniProt P08603), the log2 fold change was inactive: 0.103.

Regarding CDKAL1 (UniProt Q5VV42), the log2 fold change was inactive: 0.005.

Consider CHAF1B (UniProt Q13112), for which the log2 fold change is inactive: 0.006.

For the target CHMP1B (UniProt Q7LBR1), the log2 fold change is inactive: -0.006.

In the case of CENPO (UniProt Q9BU64), the log2 fold change was inactive: -0.078.

CFAP58 (UniProt Q5T655): the log2 fold change is active: -1.11.

In the case of CHID1 (UniProt Q9BWS9), the log2 fold change is inactive: -0.038.

Consider CDIPT (UniProt O14735), for which the log2 fold change was inactive: 0.032.

CDK7 (UniProt P50613): the log2 fold change was inactive: -0.029.

On to CDK2 (UniProt P24941), for which the log2 fold change was inactive: 0.008.

As for CENPH (UniProt Q9H3R5), the log2 fold change was inactive: -0.101.

On to CELF1 isoform 4 (UniProt Q92879), for which the log2 fold change is inactive: 0.021.

CDC42EP4 (UniProt Q9H3Q1): the log2 fold change is inactive: 0.014.

Regarding CHMP5 (UniProt Q9NZZ3), the log2 fold change was inactive: -0.013.

As to CDC42SE2 (UniProt Q9NRR3), the log2 fold change was inactive: 0.031.

CDK2AP1 (UniProt O14519): the log2 fold change is inactive: -0.048.

Take CENPF (UniProt P49454): the log2 fold change is inactive: 0.012.

Consider CEP170 (UniProt Q5SW79), for which the log2 fold change was inactive: 0.11.

Values taken from the supplement of paper PMC10849652.
